These are literature values, as cited in patent publication US20170027908A1, “Pharmaceutical Composition” (CIPLA Limited, priority 2011, published 2017).

For the data set the following is noted: in vivo.

For the compound `COc1ccc(CC(C)NCC(O)c2ccc(O)c(NC=O)c2)cc1` (racemic) [Formoterol, (±)-2-hydroxy-5-[(1RS)-1-hydroxy-2-[[(1RS)-2-(4-methoxyphenyl)-1methylethyl]amino]ethyl] formanilide], the duration of action entry is reported as “more than 12 hours” and the onset of action is 1 to 3 min.
